Results deposited as PubChem BioAssay AID1259308 (NCATS, 2017).

Aim: 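Genes whose loss raises luciferase production in HEK293 cells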 (primary screen)
Cell system: human HEK293 embryonic kidney cells stably expressing firefly luciferase (HEK-CMV-Luc2-Hygro)
Reagent: single siRNA against human genes, 0.8 pmol siRNA per well
Timing: 72 h
Measured: 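Reporter luminescence and viable-cell signal on separate replicate plates, given as percent of non-targeting control and median/MAD z-scores, plus per-cell luciferase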
Reading the numbers: total luciferase, z-score and total luciferase, % of control: higher = more reporter protein produced; luciferase per cell, z-score: higher = more reporter output per viable cell; viable cells, % of control: higher = more viable cells
Rule for the call: 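Active when the median/MAD z-score for overall luciferase is greater than 3; a gene was taken forward for validation with new siRNAs if at least two of its three siRNAs passed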
Calls: active = raised luciferase; inactive = no rise
Shown is a random part of about 59,000 reagents tested. Over the whole deposit, about 1,510 (2.6%) got an active call. 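Calls use total luciferase alone and ignore viability, so some active siRNAs may act by altering cell number.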 Reagents against one gene are numbered here.

The opening 3 entries, to show the layout:
Target gene	reagent no.	total luciferase, z-score	total luciferase, % of control	luciferase per cell, z-score	viable cells, % of control	Outcome
MRFAP1L1	1	-0.11	79.7	0.203	84.4	inactive
MRFAP1L1	2	1.22	106	1.02	90.7	inactive
MRFAP1L1	3	0.387	89.6	0.502	87.7	inactive

The listing, repeating the preview:
Target gene	reagent no.	total luciferase, z-score	total luciferase, % of control	luciferase per cell, z-score	viable cells, % of control	Outcome
MRFAP1L1	1	-0.11	79.7	0.203	84.4	inactive
MRFAP1L1	2	1.22	106	1.02	90.7	inactive
MRFAP1L1	3	0.387	89.6	0.502	87.7	inactive
OR7G1	1	1.27	107	0.236	112	inactive
OR7G1	2	-0.0799	80.3	-0.291	96.9	inactive
OR7G1	3	-0.839	65.2	-1.09	97	inactive
OSBPL7	1	-0.395	74	0.0874	80.8	inactive
OSBPL7	2	0.839	98.6	0.873	87.5	inactive
OSBPL7	3	-0.776	66.5	-1.47	109	inactive
CCDC32	1	1.32	108	0.384	109	inactive
CCDC32	2	0.632	94.4	0.218	99.6	inactive
CCDC32	3	-0.0816	80.3	0.35	81.8	inactive
TMEM81	1	1	102	0.49	100	inactive
TMEM81	2	0.145	84.8	0.273	88.1	inactive
TMEM81	3	-1.49	52.3	-0.907	74.1	inactive
TCERG1L	1	-0.641	69.1	-1.32	109	inactive
TCERG1L	2	0.143	84.7	0.137	91.3	inactive
TCERG1L	3	-0.698	68	-0.435	85.2	inactive
KRTAP6-2	1	0.342	88.7	0.247	92.9	inactive
KRTAP6-2	2	-0.998	62	-0.613	81.5	inactive
KRTAP6-2	3	-0.0966	80	-0.587	104	inactive
GAR1	1	-1.1	59.9	-0.587	78.2	inactive
GAR1	2	2.63	134	2.95	68.9	inactive
GAR1	3	-1.03	61.4	-0.903	87	inactive
TARBP1	1	0.186	85.6	-0.187	100	inactive
TARBP1	2	-0.738	67.2	-1.82	121	inactive
TARBP1	3	-1.04	61.2	-1.88	112	inactive
ANO1	1	0.123	84.3	-0.0882	96.4	inactive
ANO1	2	0.144	84.7	0.464	83.8	inactive
ANO1	3	-1.32	55.7	-1.39	89.8	inactive
TMEM54	1	1.7	116	1.96	77.3	inactive
TMEM54	2	0.00276	81.9	0.0545	90.3	inactive
TMEM54	3	-1.36	54.9	-1.74	96.9	inactive
TAF6L	1	2.31	128	2.46	74.8	inactive
TAF6L	2	0.466	91.2	0.315	93.8	inactive
TAF6L	3	0.683	95.5	0.708	88.5	inactive
FBXW7	1	-2.31	35.9	-2.2	71.6	inactive
FBXW7	2	0.338	88.6	0.238	93	inactive
FBXW7	3	-0.159	78.7	-0.613	103	inactive
TREX2	1	-0.713	67.7	-0.552	87.5	inactive
TREX2	2	-0.0304	81.3	-0.47	103	inactive
TREX2	3	-0.394	74.1	0.588	70.9	inactive
CNOT1	1	2.43	130	1.83	89.8	inactive
CNOT1	2	4.25	166	2.51	96	active
CNOT1	3	5.91	199	3.82	81.5	active
RGS22	1	-0.0443	81	-0.867	114	inactive
RGS22	2	1.16	105	0.292	109	inactive
RGS22	3	0.369	89.2	-0.33	109	inactive
KLC3	1	1.11	104	1.41	80.1	inactive
KLC3	2	0.372	89.3	0.0412	98.7	inactive
KLC3	3	-1.52	51.7	-1.43	84.2	inactive
PLXNA4	1	0.0459	82.8	1.05	70.1	inactive
PLXNA4	2	0.437	90.6	0.681	84.6	inactive
PLXNA4	3	0.127	84.4	-0.267	101	inactive
NES	1	1.3	108	1.16	88.6	inactive
NES	2	-0.824	65.5	-0.321	79.6	inactive
NES	3	0.981	101	1.88	69.1	inactive
